Laboratory results published in PubChem BioAssay AID1471 (National Center for Advancing Translational Sciences (NCATS), 2008).
The whole screen tested about 230,000 compounds, of which about 310 (0.13%) were called active. Inconclusive means that the source gave no clear call. Such entries were picked first, then a sample of the others. Calls come from the whole dose curve; as a rule, active = well fitted activation curve with a large enough effect; inconclusive = small, poorly fitted or top-dose-only effect; inactive = no such curve, though single readings can be large or run the other way. Potencies of inconclusive entries are doubtful fits and often do not repeat.

assay: qHTS Multiplex Assay to Identify Dual Action Probes in a Cell Model of Huntington: Cytoprotection (ATP); settings: PC12 HTT-Q103 induced, ATP luminescence, 40 h; cytoprotection (ATP increase): at 56.4 µM (top of the series) unless noted; note: nearly all actives have a fitted effect of over 45% in size;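 for cytoprotection (ATP increase): toxic huntingtin expression switched on by the ecdysone agonist tebufenozide; % of control where 0% means no effect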
Summary of the method: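 Readout: ATPlite luminescence (ATP level). Model: stable PC12, inducible Htt exon1 Q103-GFP. Inducer: tebufenozide, 100 nM final. Compounds: dose series. No G418 in medium.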
Potency is the fitted concentration of half-maximal effect.

| SMILES | cytoprotection (ATP increase) | Potency |
| --- | --- | --- |
| [O-]/[N+](=C\c1cccc(Br)c1)c1ccccc1 | inactive: -28.2% |  |
| COc1ccc(CCC(C)NCC2CCCCC2)cc1 (stereo not given) |  | inconclusive: 1.12 µM [activator, partial curve] |
| CCC1(C)SC(N)=NN1C(C)=O (stereo not given) |  | inconclusive: 0.398 µM [activator, full curve, poor fit] |
| CC(=O)c1ccc(-n2c(SCC(=O)c3c[nH]c4ccccc34)nc3ccccc3c2=O)cc1 |  | inconclusive: 3.16 µM [activator, single point] |
| O=c1c(-c2ccccc2)nc2cnc(N3CCNCC3)nc2n1Cc1ccc(F)cc1 |  | inconclusive: 39.8 µM [activator, single point] |
| Cc1cc(Nc2ccc3c(c2)OCCO3)c2ccccc2n1 |  | inconclusive: 0.794 µM [activator, partial curve] |
| O=C(c1csc2c1CCCC2)N1CCN(c2ccccc2)CC1 |  | inconclusive: 0.447 µM [activator, full curve, poor fit] |
| O=C(CCSc1ccccn1)Nc1ccc(Br)cc1 |  | inconclusive: 0.794 µM [activator, single point] |
| COc1ccccc1N1CCN(C(=O)c2cc(-c3cccc(Cl)c3)on2)CC1 | inactive: -12.1% |  |
| COc1c(O)cc2c(c1O)[C@@H]1O[C@@H](CO)[C@@H](O)[C@@H](O)[C@@H]1OC2=O | inactive: -4.14% [at 40.3 µM] |  |
| COc1c(C=O)c(=O)[nH]c2c(OC)cccc12 |  | inconclusive: 0.562 µM [activator, full curve, poor fit] |
| CC(C)(C)C(=O)NC(=S)NNC(=O)c1ccc(-c2ccccc2)cc1 |  | inconclusive: 2.82 µM [activator, single point] |
| O=C(OCCN1CCOCC1)c1ccc2c(c1)OCCO2 |  | inconclusive: 6.31 µM [activator, single point] |
| O=C(O)/C=C/c1ccc(-c2cccc(C(F)(F)F)c2)o1 | inactive: -25.3% |  |
| Cc1cc(C#N)c(SCC(N)=O)nc1-c1ccc(F)cc1 |  | inconclusive: 2.51 µM [activator, partial curve] |
| CCCCOc1ccc(/C=C/C2=CC(C)(C)NC(=S)N2)cc1OCC |  | inconclusive: 11.2 µM [activator, partial curve] |
| CN(C)CC[C@H](c1ccc(Cl)cc1)c1ccccn1 |  | inconclusive: 1.26 µM [activator, partial curve, poor fit] |
| Cc1ccccc1OCCN1C(=O)NC2(CCCc3ccccc32)C1=O (stereo not given) |  | inconclusive: 5.01 µM [activator, single point] |
| COc1ccc(/C=C/C(=O)N(c2ccccn2)C2CCCCC2)cc1OC |  | inconclusive: 1 µM [activator, partial curve] |
| COc1ccc(C(=O)N2CCC3(CCN(Cc4cc(C(F)(F)F)cc(C(F)(F)F)c4)CC3)CC2)cc1 |  | inconclusive: 1.26 µM [activator, full curve, poor fit] |
| CCOc1ccccc1NC(=S)N1CCC(NC(=O)c2ccco2)CC1 |  | inconclusive: 5.62 µM [activator, single point] |
| COc1cccc(-n2nnnc2S(C)(=O)=O)c1 | inactive: -120% |  |
| Cn1ccnc1C(=O)c1cc(SCC(=O)N2CCOCC2)nc2ccccc12 |  | inconclusive: 5.62 µM [activator, single point] |
| CCOc1nnc(C)c2c(C)n(-c3cccc(OC)c3)nc12 | inactive: 17.2% |  |

Three entries from above, ordered by molecular weight, smallest number first.

| SMILES | cytoprotection (ATP increase) | Potency |
| --- | --- | --- |
| COc1ccc(CCC(C)NCC2CCCCC2)cc1 (stereo not given) |  | inconclusive: 1.12 µM [activator, partial curve] |
| Cc1cc(Nc2ccc3c(c2)OCCO3)c2ccccc2n1 |  | inconclusive: 0.794 µM [activator, partial curve] |
| CCOc1nnc(C)c2c(C)n(-c3cccc(OC)c3)nc12 | inactive: 17.2% |  |

Following part

| SMILES | cytoprotection (ATP increase) | Potency |
| --- | --- | --- |
| N#Cc1c(-c2ccco2)nc(SCC(=O)Nc2ccc(S(N)(=O)=O)cc2)[nH]c1=O |  | inconclusive: 3.98 µM [activator, single point] |
| O=C1C2=CC[C@H]3C(=O)N(Cc4ccc5c(c4)OCO5)C(=O)[C@@H]3[C@@H]2[C@H](O)[C@@H]2O[C@H]12 |  | inconclusive: 5.62 µM [activator, single point] |
| O=C(O)CNC(=O)C(Cc1ccccc1)NC(=O)OCc1ccccc1 (stereo not given) | inactive: -28.6% |  |
| O=C(NCc1cccnc1)c1ccc(=O)oc1 |  | inconclusive: 0.891 µM [activator, single point] |
| O=c1[nH]cc(F)c(=O)[nH]1 |  | inactive |
| O=C(COC(=O)/C=C/c1ccc(OC(F)F)cc1)Nc1ccc(S(=O)(=O)N2CCCC2)cc1 |  | inconclusive: 0.501 µM [activator, partial curve] |
| CCOC(=O)c1ccc(-n2c(CN(CC)CC)nc3ccc([N+](=O)[O-])cc3c2=O)cc1 |  | inconclusive: 5.62 µM [activator, single point] |
| CCCCCCCCCCCCCCCCCC(=O)OC[C@@H](O)[C@H]1OC[C@H](O)[C@H]1O | inactive: 36.1% |  |
| CCn1cc([N+](=O)[O-])c(C(=O)Nc2nc(-c3ccc(C)cc3)c(C)s2)n1 |  | inconclusive: 15.8 µM [activator, partial curve] |
| COc1cc2c3cc1Oc1cc(ccc1O)C[C@@H]1c4c(cc(OC)c(O)c4Oc4ccc(cc4)C[C@H]3[N+](C)(C)CC2)CC[N+]1(C)C |  | inconclusive: 6.31 µM [activator, single point] |
| CC(=O)Oc1cc(C(F)(F)F)ccc1C(=O)O |  | inconclusive: 0.0501 µM [activator, partial curve, poor fit] |
| Cc1ccc2c(c1)COc1c3ccc(C(=O)N4CCOCC4)cc3nn1-2 | inactive: -20.2% [at 10 µM] |  |
| CC1(C(=O)NCc2ccc(Cl)c(Cl)c2)Oc2ccccc2NC1=O (stereo not given) |  | inconclusive: 5.62 µM [activator, single point] |
| CCOC(=O)c1nc2nc(-c3cccs3)cc(C(F)(F)F)n2n1 |  | inconclusive: 0.501 µM [activator, partial curve] |
| O=C1OCCC1Sc1nnc(-c2ccco2)n1-c1ccccc1 (stereo not given) |  | inconclusive: 0.112 µM [activator, partial curve, poor fit] |
| COc1cc2c(cc1OC)-c1cc3ccc(OC)c(OC)c3c[n+]1CC2 |  | inconclusive: 28.2 µM [activator, single point] |
| CCCCNc1nc(-c2ccccc2)cc(C(F)(F)F)c1C(N)=O |  | inconclusive: 5.62 µM [activator, single point] |
| COCCNC(=S)N/N=C(\C)c1cccc(OC)c1 |  | inconclusive: 1.26 µM [activator, single point] |
| NC(=O)c1cc(N)ccc1N1CCCCC1 | inactive: -15.5% |  |
| CCOc1cc2[nH]c(=S)n(CCCOC)c(=O)c2cc1OCC |  | inconclusive: 6.31 µM [activator, single point] |
| NCCO | inactive: -14.8% |  |
| CC(C)c1ccc(CNc2cc(N3CCCC3)ccc2[N+](=O)[O-])cc1 | inactive: -16.6% |  |
| Cc1cc(C)c2c(=O)[nH]c(SCc3ccccc3C)nc2n1 |  | inconclusive: 1.78 µM [activator, single point] |
| Cc1ccccc1C(=O)c1ccc2c(c1)n(C)c(=O)n2C |  | inconclusive: 3.98 µM [activator, single point] |

| SMILES | cytoprotection (ATP increase) | Potency |
| --- | --- | --- |
| Cc1[nH]nc2c1C1(C(=O)Nc3ccc([N+](=O)[O-])cc31)C(C#N)=C(N)O2 (stereo not given) | inactive: 19.4% |  |
| COc1ccc(Cc2nnc(Nc3ccccc3OC)[nH]c2=O)cc1 |  | inconclusive: 1.26 µM [activator, single point] |
| CCOC(=O)Cn1c(=O)c2c(nc(N3CCCCC3)n2Cc2ccccc2)n(C)c1=O | inactive: -37.1% |  |
| CC(C)CN1C(=O)C(=O)N(CC(=O)NCc2ccc3c(c2)OCO3)C1=O |  | inconclusive: 5.62 µM [activator, single point] |
| O=c1c2ccccc2nc(/C=C/c2ccc([N+](=O)[O-])cc2)n1CCCO | inactive: 35.2% [at 0.074 µM] |  |
| O=C(CSc1c2c(nc3ccc(Cl)cc13)CCCC2)NCc1ccco1 |  | inconclusive: 17.8 µM [activator, single point] |
| CC(C)OC(=O)CC(NC(=O)OC(C)(C)C)c1ccccc1 (stereo not given) |  | inconclusive: 11.2 µM [activator, partial curve] |
| COc1ccccc1/C=C/C(=O)Nc1nc(N)n(-c2ccccc2)n1 | inactive: 5.63% [at 10 µM] |  |
| O=C(c1ccccc1)N1CCC(c2nc(-c3ccc(S(=O)(=O)NCC4CCCO4)cc3)no2)CC1 (stereo not given) | inactive: -4.61% |  |
| Cc1[nH]n(-c2cccc(Cl)c2)c(=O)c1C=NC12CN3CN(CN(C3)C1)C2 |  | inconclusive: 3.16 µM [activator, single point] |
| COc1ccc(CN2CCN(C(=O)c3ccco3)CC2)cc1OC | inactive: -3.92% |  |
| CCOC(=O)c1cnc2c(N=Nc3cccc(Cl)c3)c(N)nn2c1N | inactive: -80.1% |  |
| O=C(NCc1cccnc1)c1ccc(COc2ccc3c(c2)CCC3)o1 | inactive: 6.29% [at 10 µM] |  |
| COc1ccc(CN2CCN(C(=O)c3cccnc3)CC2)cc1Br | inactive: -24.7% [at 10 µM] |  |
| O=c1cc(-c2cccc(O)c2O)oc2ccccc12 |  | inconclusive: 1.26 µM [activator, single point] |
| C=C(C)C(=O)C1CCCCC1 |  | inconclusive: 6.31 µM [activator, single point] |
| CN(C)/C=C/c1onc(-c2c(F)cccc2Cl)c1C#N |  | inconclusive: 1.12 µM [activator, single point] |
| CSc1nc(N)c2ncn([C@H]3O[C@H](COP(=O)(O)OP(=O)(O)O)[C@@H](O)[C@@H]3O)c2n1 |  | inconclusive: 0.112 µM [activator, full curve] |
| COc1cc(C2C3=C(CC(C)(C)CC3=O)OC(N)=C2[N+](=O)[O-])ccc1O (stereo not given) | inactive: -77.5% [at 10 µM] |  |
| COc1ccc(NC(=O)c2cc(Br)ccc2Cl)c(OC)c1 |  | inconclusive: 1.12 µM [activator, single point] |
| O=C1c2ccccc2C(Nc2ccc(S(=O)(=O)N3CCCCCC3)cc2)N1c1ccccn1 (stereo not given) | inactive: -36.7% |  |
| Cc1ccc(C(=O)C[n+]2cc(-c3ccccc3)n3c2CCCCC3)cc1 |  | inconclusive: 1.26 µM [activator, single point] |
